## Primary screen of a compound library

From ChEMBL document CHEMBL3988442, “University of Dundee, Small-Polar-MMV Screening Library” (2021).

Each number is a percent effect as filed. The controls that fix the scale are not given in the record; negative values are as filed. The compounds are a random part of those screened. Two or more numbers in one place are separate tests of the same structure; such repeats can differ widely. A dash means the value is not listed here; it may have been measured.

T. brucei: 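Whole-parasite assay of Trypanosoma brucei over 72 hours; the read-out is not stated. Tested at 30 µM. Higher reads as stronger inhibition (inferred: compounds with an IC50 in retests scored well above the rest). Values scatter widely below zero; nearly all retest evidence comes from the higher of the two concentrations used. Size under these conditions: about 64,000 compounds, about 940 of them at 50% or above in at least one test.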
Toxoplasma: 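Assay of Toxoplasma gondii numbers, read through their beta-galactosidase reporter with a colour substrate. Tested at 10 µM. Higher reads as fewer parasites (inferred from which compounds were picked for retests). Of about 67,000 compounds tested this way, about 260 (0.38%) reached 50% or more in at least one test.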
Leishmania in macrophages: 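Cell assay of Leishmania donovani living inside macrophages; the read-out is not stated. Tested at 30 µM. Direction is inferred from retests: higher values go with stronger inhibition. Of about 69,000 compounds tested this way, about 1,000 (1.5%) reached 50% or more in at least one test.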

structure | T. brucei | Toxoplasma | Leishmania in macrophages
COCC(=O)N1CCC(c2nc3ccc(-c4ccncc4)cn3n2)CC1.O=C(O)C(F)(F)F | -1.793 | -0.8676 | 31.27
Cc1ncc(COc2cccc3c2NC(=O)CO3)s1 | -20.71 | 2.363 | -4.251
CC(C)[C@@H](C)NC(=O)N1CCn2nc(C(=O)NCCN(C)C)cc2C1 | -24.91 | -9.264 | -6.083
Cc1[nH]ccc1C(=O)N[C@H]1CN(S(C)(=O)=O)C[C@@H]1C1CC1 | -21.71 | -1.546 | 12.07
COCCO[C@H]1CCN(Cc2cnn(C)c2)[C@H]1Cc1cccnc1 | -67.43 | -2.154 | 0.01038
COC(=O)C(C)(C)NC(=O)c1cnc(Cc2ccc(F)cc2)s1 | 47.65 | 4.07 | 22.44
Cc1nc(CN2C(=O)COC3(CCN(CC4CC4)CC3)C2C)cs1.O=C(O)C(F)(F)F (configuration not stated) | -36.01 | -10.18 | 30.95
COc1ccc(CNC(=O)Nc2cccnc2OC)cc1O | -33.66 | 5.59 | -0.7803
CN(C)C(=O)N1CCN(C(=O)c2ccc(Cl)c(Cl)c2)C(C)(C)C1 | 16.65 | 7.234 | 36.34
CC(C)c1nc2n(n1)CC(NCc1cc3ccccc3o1)CC2 (configuration not stated) | -29.93 | 2.222 | 26.22
CCC(CO)N(Cc1ccsc1)Cc1c(C)nn(C)c1Cl (configuration not stated) | 8.008 | -2.995 | -5.893
C=C(C)COc1cccc(C(=O)NC(C)c2nnn[nH]2)c1 (configuration not stated) | -8.924 | 3.904 | 9.332
CCc1nc(CN2CCCC(N(C)CCn3cccn3)C2)no1 (configuration not stated) | -38.03 | 13.28 | -22.03
O=C(CC1CCN(CCN2CCCCC2)CC1)N1CCOCC1 | -23.15 | -3.714 | -30.31
COCCOCC(=O)NC(C#N)c1cc(Cl)cc(Cl)c1 (configuration not stated) | -48.61 | -1.736 | -44.81
COCC(=O)NC1CC2(CCN(Cc3ccco3)CC2)c2ccccc21.O=C(O)C(F)(F)F (configuration not stated) | - | -3.712 | -18.66
CN(C)Cc1cnc2n1CCN(C(=O)NC1CCCC1)CC2.O=C(O)C(F)(F)F | -37.78 | -5.556 | 10.16
Cc1occc1CNC(=O)N(CCCO)C1CCc2ccccc21 (configuration not stated) | -6.164 | 12.11 | 6.591
CC(C)=CCN1CCN(C(=O)C2CC2)CC1 | -37.39 | 5.202 | -4.864
Cc1ccc(C2CSCCN2C(=O)c2ccnc(N(C)C)c2)o1 (configuration not stated) | -17.34 | 11.24 | 11.97
CCCC(=O)N1CCC(N2CC[C@@](O)(CCOC)[C@H](C)C2)CC1 | -36.69 | 9.843 | 18.95
CCOCC1CN(Cc2ccc3c(c2)OCO3)Cc2nccn2C1 (configuration not stated) | -6.007 | -5.545 | 10.21
O=C(c1ccnc(CC2COc3ccccc3C2)c1)N1CCCC1 (configuration not stated) | -20.74 | 27.75 | -46.02
OCCOc1ccc(NCc2cccnc2)cn1 | -128.7 | 0.5408 | -2.954
Cc1nc(-n2nc(C3CC3)cc2NC(=O)C(C)C)[nH]c(=O)c1C | -15.8 | 79.17 | 15.32
NC(=O)CNC(=O)c1ccc(CNCc2ccc(Cl)cc2Cl)cc1 | -29.22 | 2.054 | -6.115
CCN(CC)C(=O)[C@@H]1C[C@@H](n2cc(-c3ccccn3)nn2)CN1 | -21.4 | 4.817 | 6.049
Cc1nn(C)c(Cl)c1C1CCCN1C(=O)c1cnc[nH]1 (configuration not stated) | 4.349 | -29.52 | 38.23
N#Cc1cccc(CN(CCO)Cc2ccsc2)c1 | -9.625 | 8.488 | -0.5413 & 13.86
CC(C)c1ccccc1OCCNC(=O)N1CCC2(CC1)OCCO2 | -1.951 | 2.869 | 18.84
CC(C)OCCS(=O)(=O)N1CCCC1c1cccc(N(C)C)c1 (configuration not stated) | -31.21 | 3.138 | 2.546
Cc1cc(C)nc(NC(C)Cc2cnccn2)n1 (configuration not stated) | - | -7.278 | -1.11
O=C(NCc1ccoc1)c1ccc(C2CCCN2CC2CCOCC2)s1 (configuration not stated) | -38.11 | 5.706 | -8.545
OCCN1CCC(Cc2nccs2)CC1 | 8.017 | 31.84 | 33.32
[H][C@]12CC[C@]([H])(CN(Cc3snnc3C)C1)N(Cc1ccccc1)C2 | -23.37 | -40.43 | -28.74
CCc1nc(C2CCCN(C(=O)c3cccnc3O)C2)no1 (configuration not stated) | -8.215 | -24.41 | 28.57
CS(=O)(=O)Cc1cccc(CNS(=O)(=O)c2ccc(F)c(F)c2)c1 | -59.62 | 3.546 | 9.028
Nc1cnc(-c2cccc3c2CCNC3)cn1 | 17.89 | 5.92 | 9.562
C1CCN(CCOC2CCNCC2)C1 | -39.21 | 0.947 | 15.23
Cn1cc(NC(=O)Nc2ccccn2)cc(Cl)c1=O | -1.38 | 4.98 | -1.133
Cc1nc(-c2cn(CCN)nn2)n(-c2ccc(C(F)(F)F)cc2)n1 | -34.77 | -2.214 | -10.26
c1ccc(O[C@H]2COCCN(Cc3cccc4c3OCO4)C2)cc1 | -45.46 | -2.305 | -7.889
CS(=O)(=O)NCC1CCCN(C(=O)Nc2cccc3ccccc23)C1 (configuration not stated) | -18.46 | -25.45 | -13.84
CN1CCN([C@@H]2CCN(CC3CCOC3)[C@H]2Cc2cnn(C)c2)CC1.O=C(O)C(F)(F)F.O=C(O)C(F)(F)F.O=C(O)C(F)(F)F (some centres not stated) | -11.59 | -1.82 | 11.29
Cc1cc(C)cc(CNc2ccc(C(=O)NC(C)CO)cc2)c1 (configuration not stated) | 34.18 | 1.702 | 22.27
COCC(=O)Nc1ccc2c(c1)C1(CCOCC1)CN2CCF.O=C(O)C(F)(F)F | -75.84 | -24.04 | 10.84
Cc1ccccc1-n1cnnc1SCC(=O)NCC1CCCO1 (configuration not stated) | -21.19 | -6.496 | 16.6
O=C1CCC2(CCN(Cc3cscn3)CC2)CN1[C@H]1CC[C@H](O)CC1 | -1.213 | -5.626 | 12.14
[H][C@@]12CCN(c3ncccn3)C[C@]1([H])[C@@H](CNC(=O)c1ccnnc1)OC2 | - | -14.71 | -63.57
O=C(NCc1cccs1)C1CCCN(c2cc(-n3cncn3)ncn2)C1 (configuration not stated) | 10.31 | 7.851 | 6.946 & -2.856
CC(C)N1CCC(Cc2cc(-c3ccccc3C(=O)O)ncn2)CC1 | -33.53 | -4.42 | -33.25
COc1c(CNC2CCc3ccccc32)c(C)nn1C (configuration not stated) | - | 6.444 | 20.93
Cc1nc2c(c(N3CC=CC3)n1)CCN(Cc1ccoc1)CC2 | -15.73 | -1.997 | 7.462

Some entries from above, unchanged:

{"structure": "COCCOCC(=O)NC(C#N)c1cc(Cl)cc(Cl)c1", "stereo": "configuration not stated", "T. brucei": -48.61, "Toxoplasma": -1.736, "Leishmania in macrophages": -44.81}
{"structure": "C1CCN(CCOC2CCNCC2)C1", "T. brucei": -39.21, "Toxoplasma": 0.947, "Leishmania in macrophages": 15.23}
{"structure": "O=C(c1ccnc(CC2COc3ccccc3C2)c1)N1CCCC1", "stereo": "configuration not stated", "T. brucei": -20.74, "Toxoplasma": 27.75, "Leishmania in macrophages": -46.02}
{"structure": "CCN(CC)C(=O)[C@@H]1C[C@@H](n2cc(-c3ccccn3)nn2)CN1", "T. brucei": -21.4, "Toxoplasma": 4.817, "Leishmania in macrophages": 6.049}